Earlier results as cited in patent US20130281398A1, “TREATMENT OF DISEASES BY EPIGENETIC REGULATION” (RVX Therapeutics Inc., priority 2012, published 2013).

System: lipopolysaccharide-induced endotoxic shock and bacteria-induced sepsis
Settings: Nicodeme et al. (2010); cited from earlier work

In the case of `CCNC(=O)C[C@@H]1N=C(c2ccc(Cl)cc2)c2cc(OC)ccc2-n2c(C)nnc21` [I-BET], the “protection against endotoxic shock and sepsis” value is listed as “confer protection”.
